From paper PMC11708023 come the findings set out here.

The chains behind the UniProt entries cited, without tags or fusion partners.
UniProt P68831: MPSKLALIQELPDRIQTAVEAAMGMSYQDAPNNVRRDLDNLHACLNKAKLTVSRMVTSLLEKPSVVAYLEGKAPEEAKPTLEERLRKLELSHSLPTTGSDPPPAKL

The labels stand for the following.
B1: CG9213 (protein, UniProt Q9VXT5 1-687)
chain: MSYIQFESGREKDKARQELREAREAMLQQAKERAELRGQRERQKELRGEADWMLPALAKKLEKPAKKSKKNVSKHKSRSKSKSSKKSRKHRNSSSSSESSTSSSSSFSEDEKERKRRKKKSKRSRKESASEDEWVEAPPPLAADNVTKKEPPQRDDWMTSESLLLKTFSRERKEPAKPNEKAQQIDAYDPAKSGRELNPYWKSNGTGLPGFQKPQDDDERQAKPHSSSSAQGSSRGWRKPGAKAPSPPRRSRSRSKSATSSDEEEEEAVQQPKSRPSCLTDEQINELAGKAIKAELKGKKELAAELNQQLEAARKERAEFIASGESVRNANTRPAKSKASAEHVLLTKVDQSGNVRPLVQSGDPNESYGGRMGPKRGSKKVDTHVDGQRVRYFADDDRYDIKQMFEREKHATAAEVNLQYADIVSKHKNPNDDLDDIFADKVRKQISASDAEKREMQSAIREHEKLVATLDNCERCFDSAKLDKQLLVSLGDKIYLSLPWYMGLQSGHCILTTLQHVPCCTQLDEDAWEEISNFRKALTRMFAARRQDVVFYEIANKLHRRPHLSVHCIPIPASQGEMAPFYFKKAIEESEQEWCINKQLVSLRQKSLRAAIPKGLPYVWVHFGMDSGFAHVIEDEDRFPANFAQEILGGMLELNPNAWRKPRKEANPIGKVKSFAENWKKFDCTQN
B2: Endogenous CDK12 of S2 cells (enzyme, UniProt Q9VP22 1-1157)
chain: MHASSAAATALVEYSDVSSEDFSDQEAGDLDADAGKGAGNIKKPKPAPDNQFSKGRLDAKPDKEGYDNYRSRRAEDSSDPVAAGSRQTSSSEATNPREEPSQASNTSKDELWGREIYMSSDSIDTDELEAEMKRQKRKKQKKEKHKHKSKKKSKKRKKKRAKSYSSIDSMSDNDINALLDRRYTPPTAPSKSNERTVSAAPSSFTPHNLKESSSPATPPPVRRPNTNSNYYGESSLETANSALGSNLQVTVTNKQSISNRLRSPPPSSRSSGNGPRFGNSPRTPPPSHYSSSGGGGVGSGSVVRDSRSSRYVNSPHKEDVSAHHRSSHDHGYQGRYSGAGSSSHDTRKVKRLSPELDRYNHQPSTPPHKRRKFSDGREVGLGNFEHSRHHSGKYERYSRDRYSRRSSRSPSVQHSRSRQSPSGGLSSGSNAFRHGGSHKHKYGTTVSSTPSHTTRTSKRASGTGTSGDRYSRSPRTSSRYMESSPPSPVGASGSHHYHHRRSPRMRQRTRGDSRRRSPSSASSESSASRSRSPTSRDLKHKREEYIKKISETSLFAELVKDRHKRQKALKEIIERQEENSNSNSNGALTINDNSSSVDGNTPNAADGRSAPGSGTPAAASTTSNGLQALGSKPDLDLNNIPMPNKQNDSVVSNPASNADVPDSVAQLKQPLLVPPFSASKNNIKPKSLTSLPLPPGMNVLDLAGARSPSPGQKKESDEKNVTSSGSANKSVLNLPMPPVIPGSEELSGDDDVIDSPEDFDAPAVGTVHGHGGGPGTTRQRPVILNRRDSRNNVRDWGERCVDVFEMIAQIGEGTYGQVYKARDHHTNDMVALKKVRLEHEKEGFPITAVREIKILRQLNHRNIVNLHEIVTDKQDAVEFRKDKGSFYLVFEYMDHDLMGLLESGMVDFNEENNASIMKQLLDGLNYCHKKNFLHRDIKCSNILMNNRGKVKLADFGLARLYNADDRERPYTNKVITLWYRPPELLLGEERYGPSIDVWSCGCILGELFVKRPLFQANAEMAQLETISKICGSPVPAVWPNVIKLPLFHTLKQKKTHRRRLREDFEFMPAPALDLLDKMLDLDPDKRITAEDALRSPWLRKINPDEMPTPQLPTWQDCHELWSKKRRRQMREQQESLPPTVIASTKYQQHGATMVGDA
B3: shep (protein, UniProt Q8MSV2 1-590)
chain: MHPRYSPAPPPQQQQQMGGPPHQQQGGGGGGGVSMRGPSNAQQLPPQIPRSQNYSNGSSSSAAAAPLTSRSAFPGAPLTASAVALKGALPQRPPAMTSPAAAAAGAALAAGAPYRGAASWTPQGYAPAAAAAAAAVAQQAAYRYTAPLPQPAYAAYTPHTATTPATTTVSFLSQPVDYYWYGQRVPTAASPSNTNSSSSSNTGSQSGTLSTSLSNTTNTNTNMGPNGTVQNQNQQGGEQLSKTNLYIRGLQQGTTDKDLVNMCAQYGTIISTKAILDKTTNKCKGYGFVDFEQPAFAECAVKGLQGKGVQAQMAKQQEQDPTNLYIANLPPHFKETDLEAMLSKYGQVVSTRILRDQQMNSKGVGFARMESREKCEQIIQMFNGNTIPGAKDPLLVKFADGGPKKKNLFKTPDPNARAWRDVSAEGIPVAYDPTMQQNGVSVNVGTPIGVPYSRFSAPQVGGYPVAGSQWIPGYMMTQVDDQTSYSPQYMQMAAAPPLGVTSYKPEAVNQVQPRGISMMVSGDTGVPYGTMMPQLATLQIGNSYISPTYPYYAPPPTIIPTMPMTDSEQASTAASPDEAYTQYPHQAAPK
B4: Fand (protein, UniProt A1Z9G2 1-883)
chain: MVTKTIKSLNLEINFEVEDVPYEEEILRNAYSVKHWLRYIDHKAKAPNNGVNMVYERALKELPGSYKIWHNYLRTRRKQVRGKIPTDPMYEEVNSAFERALVFMHKMPRIWMDYGAFMTSQCKITRTRHVFDRALRALPITQHGRIWPLYLQFVRRFEMPETALRVYRRYLKLFPEDTEEYVDYLQEADRLDEAAQQLAHIVDNEHFVSKHGKSNHQLWNELCDLISKNPHKVHSLNVDAIIRGGLRRYTDQLGHLWNSLADYYVRSGLFDRARDIYEEAIQTVTTVRDFTQVFDEYAQFEELSLNRRMEQVAANEAATEEDDIDVELRLSRFEYLMERRLLLLNSVLLRQNPHNVHEWHKRVTLYEDKPAEIISTYTEAVQTVQPKQAVGKLHTLWVEFAKFYEANGQVEDARVVFERGTEVEYVKVEDLAAVWCEWAEMELRQQQFEAALKLMQRATAMPKRKIAYYDDTETVQARLHRSLKVWSMYADLEESFGTFKTCKAVYERIIDLKICTPQIIINYGMFLEEHNYFEEAYRAYEKGISLFKWPNVYDIWNSYLTKFLERYGGTKLERARDLFEQCLDQCPPEHAKYFYLLYAKLEEEHGLARHAMSVYDRATSAVKEDEMFDMYNIFIKKAAEIYGLPRTREIYEKAIESLPEQNMRHMCVKFAELETKLGEVDRARAIYAHCSQVCDPRITADFWQTWKEFEVRHGNEDTMREMLRIKRSVQATYNTQVNMMAAQFLSTNNGAAADAGAGAGPDAMRLLEEKARQAAAESKQKPIEKAASNIMFVRGETQGGAKDKKDTVVNPDEIDIGDSDEDDEEEDDDEENEMTNENQASAAVTKTDEEGLVMKKLRFEQKAIPAKVFGSLKPSNQGDSDGE
B5: Stau (protein, UniProt P25159 1-1026)
chain: MQHNVHAARPAPHIRAAHHHSHSHAHMHLHPGMEQHLGPSLQQQQQPPPPPQQPPHRDLHARLNHHHLHAQQQQQQQTSSNQAGAVAAAGAAYHHGNINSNSGSNISSNSNQMQKIRQQHQHLSSSNGLLGNQPPGPPPQAFNPLAGNPAALAYNQLPPHPPHHMAAHLGSYAAPPPHYYMSQAKPAKYNHYGSNANSNSGSNNSNSNYAPKAILQNTYRNQKVVVPPVVQEVTPVPEPPVTTNNATTNSTSNSTVIASEPVTQEDTSQKPETRQEPASADDHVSTGNIDATGALSNEDTSSSGRGGKDKTPMCLVNELARYNKITHQYRLTEERGPAHCKTFTVTLMLGDEEYSADGFKIKKAQHLAASKAIEETMYKHPPPKIRRSEEGGPMRTHITPTVELNALAMKLGQRTFYLLDPTQIPPTDSIVPPEFAGGHLLTAPGPGMPQPPPPPAYALRQRLGNGFVPIPSQPMHPHFFHGPGQRPFPPKFPSRFALPPPLGAHVHHGPNGPFPSVPTPPSKITLFVGKQKFVGIGRTLQQAKHDAAARALQVLKTQAISASEEALEDSMDEGDKKSPISQVHEIGIKRNMTVHFKVLREEGPAHMKNFITACIVGSIVTEGEGNGKKVSKKRAAEKMLVELQKLPPLTPTKQTPLKRIKVKTPGKSGAAAREGSVVSGTDGPTQTGKPERRKRLNPPKDKLIDMDDADNPITKLIQLQQTRKEKEPIFELIAKNGNETARRREFVMEVSASGSTARGTGNSKKLAKRNAAQALFELLEAVQVTPTNETQSSEECSTSATMSAVTAPAVEATAEGKVPMVATPVGPMPGILILRQNKKPAKKRDQIVIVKSNVESKEEEANKEVAVAAEENSNNSANSGDSSNSSSGDSQATEAASESALNTSTGSNTSGVSSNSSNVGANTDGNNHAESKNNTESSSNSTSNTQSAGVHMKEQLLYLSKLLDFEVNFSDYPKGNHNEFLTIVTLSTHPPQICHGVGKSSEESQNDAASNALKILSKLGLNNAMK

No constants are given. Whether binding was seen depends on the method and setting. In cells and extracts the contact can be indirect. A yes stands for co-enrichment or nearness to the bait. Other partners may have been found.

The assay concerns the target V5-tagged B2 of Flock House virus (FHV) (Flock House virus) (UniProt P68831). In words: affinity purification with mass spectrometry; S2 cells transfected with V5-tagged B2 for 48 h; lysate in RIPA buffer immunoprecipitated with anti-V5 antibody on protein A agarose; on-bead trypsin digest, LC-MS/MS; control empty vector / anti-IgG.
In the case of B1, the binding result is on record as “binds”.
Then B2, with “binds”; and B3, with “binds”; and B4, with “binds”.
Then B5, with “binds”.
